# Experimental data as given in PubChem BioAssay (EPA / NIEHS).
# Chains of the proteins cited; added tags and fusions are not shown. Lines headed by an entry give the natural chain unless they say otherwise; changes in a name come on top.
# UniProt P04150: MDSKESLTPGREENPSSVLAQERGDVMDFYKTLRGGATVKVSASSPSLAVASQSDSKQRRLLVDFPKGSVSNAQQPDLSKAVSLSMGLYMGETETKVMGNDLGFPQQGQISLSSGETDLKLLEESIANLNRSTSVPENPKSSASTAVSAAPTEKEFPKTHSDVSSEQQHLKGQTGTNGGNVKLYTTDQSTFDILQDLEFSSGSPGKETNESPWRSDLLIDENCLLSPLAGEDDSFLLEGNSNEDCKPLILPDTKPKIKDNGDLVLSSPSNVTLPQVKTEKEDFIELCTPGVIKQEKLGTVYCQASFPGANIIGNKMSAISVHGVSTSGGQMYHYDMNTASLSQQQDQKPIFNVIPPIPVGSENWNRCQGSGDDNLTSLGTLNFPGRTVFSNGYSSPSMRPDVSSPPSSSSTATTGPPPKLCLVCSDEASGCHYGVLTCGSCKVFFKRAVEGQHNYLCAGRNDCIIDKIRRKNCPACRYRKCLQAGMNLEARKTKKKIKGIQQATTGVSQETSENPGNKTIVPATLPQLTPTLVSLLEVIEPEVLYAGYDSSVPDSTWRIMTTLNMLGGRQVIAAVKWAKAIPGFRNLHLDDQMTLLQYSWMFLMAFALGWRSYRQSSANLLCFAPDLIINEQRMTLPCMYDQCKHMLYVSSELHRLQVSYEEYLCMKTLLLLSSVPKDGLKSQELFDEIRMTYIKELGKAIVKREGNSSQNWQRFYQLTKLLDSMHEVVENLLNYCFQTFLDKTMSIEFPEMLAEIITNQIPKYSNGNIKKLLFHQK
# UniProt O75469: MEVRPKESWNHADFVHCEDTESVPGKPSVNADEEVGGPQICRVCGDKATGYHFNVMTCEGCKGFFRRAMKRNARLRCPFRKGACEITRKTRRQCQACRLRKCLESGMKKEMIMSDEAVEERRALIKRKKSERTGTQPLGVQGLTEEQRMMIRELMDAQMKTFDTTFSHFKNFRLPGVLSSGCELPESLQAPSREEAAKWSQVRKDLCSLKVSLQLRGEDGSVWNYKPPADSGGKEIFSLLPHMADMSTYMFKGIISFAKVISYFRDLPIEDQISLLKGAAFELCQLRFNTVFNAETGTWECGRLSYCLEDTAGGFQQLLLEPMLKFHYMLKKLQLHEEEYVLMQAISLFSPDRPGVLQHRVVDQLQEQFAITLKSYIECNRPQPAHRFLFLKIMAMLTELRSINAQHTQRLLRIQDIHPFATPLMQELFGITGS
# UniProt P11473: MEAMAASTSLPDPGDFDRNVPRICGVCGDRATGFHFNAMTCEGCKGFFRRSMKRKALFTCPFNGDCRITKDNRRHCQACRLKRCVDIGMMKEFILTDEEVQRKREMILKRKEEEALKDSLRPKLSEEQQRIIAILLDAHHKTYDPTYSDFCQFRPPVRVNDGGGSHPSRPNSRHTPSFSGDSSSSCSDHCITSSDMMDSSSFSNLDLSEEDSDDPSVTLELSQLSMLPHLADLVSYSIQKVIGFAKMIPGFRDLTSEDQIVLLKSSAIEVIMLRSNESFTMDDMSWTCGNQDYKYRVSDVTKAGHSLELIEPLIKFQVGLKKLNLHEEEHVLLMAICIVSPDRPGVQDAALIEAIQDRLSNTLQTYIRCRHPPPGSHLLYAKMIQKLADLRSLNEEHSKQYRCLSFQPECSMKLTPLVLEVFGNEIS
# UniProt Q96RI1: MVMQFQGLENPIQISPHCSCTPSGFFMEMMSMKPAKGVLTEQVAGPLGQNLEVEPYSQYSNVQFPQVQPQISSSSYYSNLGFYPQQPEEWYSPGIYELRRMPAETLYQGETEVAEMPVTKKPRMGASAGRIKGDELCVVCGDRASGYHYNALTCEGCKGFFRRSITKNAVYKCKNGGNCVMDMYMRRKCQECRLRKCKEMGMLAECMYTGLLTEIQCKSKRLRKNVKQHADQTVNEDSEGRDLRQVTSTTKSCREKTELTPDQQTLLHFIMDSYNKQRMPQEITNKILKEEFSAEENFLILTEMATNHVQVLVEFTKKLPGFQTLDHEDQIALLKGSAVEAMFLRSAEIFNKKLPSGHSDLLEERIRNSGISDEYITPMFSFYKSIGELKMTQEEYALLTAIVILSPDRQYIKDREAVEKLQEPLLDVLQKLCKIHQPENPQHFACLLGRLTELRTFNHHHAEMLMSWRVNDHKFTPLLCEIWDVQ
# UniProt P04637, whole entry, looked up: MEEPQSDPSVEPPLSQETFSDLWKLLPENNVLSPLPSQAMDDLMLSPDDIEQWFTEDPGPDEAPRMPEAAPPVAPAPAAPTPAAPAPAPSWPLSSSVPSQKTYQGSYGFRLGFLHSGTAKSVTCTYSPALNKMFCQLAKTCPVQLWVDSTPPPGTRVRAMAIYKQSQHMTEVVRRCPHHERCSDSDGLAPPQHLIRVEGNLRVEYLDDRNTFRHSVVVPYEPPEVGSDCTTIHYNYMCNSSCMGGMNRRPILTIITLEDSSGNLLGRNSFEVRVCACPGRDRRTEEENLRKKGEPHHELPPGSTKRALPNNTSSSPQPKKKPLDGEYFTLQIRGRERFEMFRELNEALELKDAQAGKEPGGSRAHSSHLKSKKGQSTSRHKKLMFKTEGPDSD
# UniProt P37231: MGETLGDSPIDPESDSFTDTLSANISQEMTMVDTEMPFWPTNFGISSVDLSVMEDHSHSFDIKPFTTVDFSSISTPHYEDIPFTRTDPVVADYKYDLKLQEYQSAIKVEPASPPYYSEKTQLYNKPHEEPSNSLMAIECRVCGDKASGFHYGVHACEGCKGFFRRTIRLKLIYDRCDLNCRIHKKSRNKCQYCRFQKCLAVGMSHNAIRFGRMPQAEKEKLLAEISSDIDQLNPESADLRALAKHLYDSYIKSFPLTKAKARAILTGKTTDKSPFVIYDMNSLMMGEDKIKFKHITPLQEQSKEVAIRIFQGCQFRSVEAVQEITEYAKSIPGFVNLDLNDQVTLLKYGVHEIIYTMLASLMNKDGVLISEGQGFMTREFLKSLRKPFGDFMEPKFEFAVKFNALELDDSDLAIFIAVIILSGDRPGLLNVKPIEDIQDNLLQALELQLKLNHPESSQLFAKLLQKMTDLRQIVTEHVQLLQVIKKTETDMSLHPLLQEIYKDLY
# UniProt Q03181: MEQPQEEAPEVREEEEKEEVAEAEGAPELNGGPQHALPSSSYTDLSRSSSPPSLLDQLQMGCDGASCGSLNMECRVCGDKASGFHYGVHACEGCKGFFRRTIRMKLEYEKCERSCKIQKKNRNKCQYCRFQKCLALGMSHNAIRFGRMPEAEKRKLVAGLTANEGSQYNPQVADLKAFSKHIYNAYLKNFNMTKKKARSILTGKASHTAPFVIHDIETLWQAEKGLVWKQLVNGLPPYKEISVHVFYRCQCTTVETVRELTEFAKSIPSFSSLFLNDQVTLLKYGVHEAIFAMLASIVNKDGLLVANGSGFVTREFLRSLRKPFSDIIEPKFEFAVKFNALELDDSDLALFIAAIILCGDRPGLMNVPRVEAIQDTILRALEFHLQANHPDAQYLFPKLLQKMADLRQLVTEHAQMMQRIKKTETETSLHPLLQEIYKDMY
# UniProt P19793: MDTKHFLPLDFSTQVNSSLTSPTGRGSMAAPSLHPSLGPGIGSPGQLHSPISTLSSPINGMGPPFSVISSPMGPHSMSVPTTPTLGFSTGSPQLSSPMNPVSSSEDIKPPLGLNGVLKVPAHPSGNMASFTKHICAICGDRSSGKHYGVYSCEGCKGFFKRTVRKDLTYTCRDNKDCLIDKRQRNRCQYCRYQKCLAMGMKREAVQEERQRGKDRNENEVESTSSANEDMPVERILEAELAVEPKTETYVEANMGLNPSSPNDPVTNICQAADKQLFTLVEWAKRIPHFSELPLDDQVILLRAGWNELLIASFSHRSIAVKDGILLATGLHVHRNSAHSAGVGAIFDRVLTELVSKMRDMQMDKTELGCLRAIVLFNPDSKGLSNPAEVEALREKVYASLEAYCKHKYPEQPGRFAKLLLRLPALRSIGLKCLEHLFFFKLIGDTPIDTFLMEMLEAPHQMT
# Where “and” joins values, the source holds several entries; their conditions need not be identical. Equal entries are not always repeated. This list was built around the results that the source calls inconclusive (neither active nor inactive); the mix of calls is not that of the screen. For some assays here: A potency beside an inconclusive call is a rough fit, not a confirmed value. Calls of active or inactive are those of the source. How the source made its calls: active means hit-call score of the fitted dose curve at least 0.9, where 1 is the maximum; inconclusive means response in the unintended direction; inactive means score below 0.9.
# Assays:
# [1] = biological target: Glucocorticoid receptor (Homo sapiens) (UniProt P04150); assay: ATG_GR_TRANS: Attagene TRANS-FACTORIAL HepG2 Assay for human Glucocorticoid Receptor (GR) (AID 2282978); conditions: HepG2 Attagene TRANS GR reporter, mRNA transcription;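 further: activators score as hits since higher reporter transcript over DMSO is fitted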
# Procedure, shortened: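 After 24 h incubation with test chemical, transfected HepG2 cells were lysed for RNA; reporter cDNA was amplified, FAM-labelled, HpaI-digested and sized on a capillary analyser. Signal gain relative to DMSO was scored.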
# [2] = biological target: Nuclear receptor subfamily 1 group I member 2 (Homo sapiens) (UniProt O75469); assay: ATG_PXR_TRANS: Attagene TRANS-FACTORIAL HepG2 Assay for human Pregnane X Receptor (PXR) (AID 2283008)
# Procedure, shortened: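 Fluorescence intensity of FAM-labelled, HpaI-digested reporter amplicons, separated by capillary electrophoresis, quantifies induction. HepG2 cells with PXR-Gal4 trans-reporter system were exposed 24 h; DMSO defines baseline.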
# [3] = biological target: human Vitamin D Receptor (VDR), VDR (gene 7421) (UniProt P11473); assay: ATG_VDR_TRANS: Attagene TRANS-FACTORIAL HepG2 Assay for human Vitamin D Receptor (VDR) (AID 2283022)
# Procedure, shortened: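 Fluorescence of labelled reporter cDNA fragments, resolved by capillary electrophoresis, gives mRNA induction after 24 h treatment of HepG2 cells carrying transfected Gal4-fusion reporter units. Activity is fitted in the positive direction with DMSO as baseline.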
# [4] = ACEA_ER_AUC_viability: ACEA Biosciences xCELLigence Real-Time Cell Analysis on Estrogen Receptor Agonism for Viability (AID 2283782);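 further: continuous compound exposure with impedance area under curve over 80 h; hit means loss of impedance signal meaning reduced cell growth or viability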
# Procedure, shortened: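 T-47D; phenol red-free RPMI1640 + 10% CS-FBS; 8 conc., 1:4 serial, max 100 uM final, ≤0.5% DMSO; n = 2; continuous exposure; impedance monitored to 80 h post-dose; AUC vs DMSO.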
# [5] = biological target: Bile acid receptor (Homo sapiens) (UniProt Q96RI1); assay: ATG_FXR_TRANS: Attagene TRANS-FACTORIAL HepG2 Assay for Farnesoid X Receptor (FXR) (AID 2282979); conditions: HepG2 Attagene TRANS FXR-GAL4 reporter transcription;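 further: hits raise reporter mRNA above DMSO so AC50 marks FXR activation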
# Procedure, shortened: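 Chimeric FXR-GAL4 activity in transiently transfected human HepG2 liver cells is scored as induction of reporter mRNA after 24 h of dosing. Detection uses RT-PCR with fluorescent labelling and capillary electrophoresis, with DMSO serving as baseline.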
# [6] = ATG_XTT_Cytotoxicity: Cytotoxicity Assessment in the Attagene TRANS-FACTORIAL HepG2 Assay (AID 2283584)
# Procedure, shortened: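 Transfect HepG2 with GAL4-UAS reporter units, dose compound, incubate 24 h, then measure viable cell number by XTT. Fit concentration response against DMSO baseline.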
# [7] = biological target: Cellular tumor antigen p53 (Homo sapiens) (UniProt P04637); assay: TOX21_p53_BLA_p3_ratio: Tox21 HCT-116 p53 Agonism Beta-lactamase Assay, Ratio, Phase 3 (AID 2283596)
# Procedure, shortened: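 HCT116 p53-bla cells (4000/well) given compound in DMSO (217-fold dilution) after 5 h, incubated 16 h at 37C. CCF4-AM substrate 2 h at room temperature; 460/530 nm emission ratio, gain fitted against DMSO.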
# [8] = TOX21_p53_BLA_p4_viability: Viability Assessment in the Tox21 HCT-116 p53 Agonism Beta-lactamase Assay, Phase 4 (AID 2283597);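 further: hits lower the luminescence signal meaning cytotoxicity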
# Procedure, shortened: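 Compound exposure of HCT116 cells lasts 16 h at 37C, 5% CO2, with DMSO stocks diluted 217-fold. Cellular ATP is then quantified by CellTiter-Glo luminescence after 30 min at room temperature.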
# [9] = biological target: Cellular tumor antigen p53 (Homo sapiens) (UniProt P04637); assay: TOX21_p53_BLA_p4_ratio: Tox21 HCT-116 p53 Agonism Beta-lactamase Assay, Ratio, Phase 4 (AID 2283601)
# Procedure, shortened: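 Signal is the blue/green (460nm/530nm) ratio of cleaved versus uncleaved CCF4-AM substrate, read after 2 h substrate loading. Cells were HCT116 carrying the p53-responsive beta-lactamase reporter, dosed 16 h at 37C, 5% CO2; CellTiter-Glo measured in parallel.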
# [10] = CCTE_Harrill_HTTr_CellCount_MCF7: CCTE's Cell Proliferation Assessment for the High-Throughput Transcriptomics (HTTr) Platform, Harrill Lab (AID 2284012);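 further: cells exposed to compound for six hours; intended direction is loss of nuclei count meaning fewer cells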
# Procedure, shortened: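 MCF7 cells exposed 6 hours to an eight-point dilution series; Hoechst-stained nuclei counted by high-content imaging. Bidirectional curve fitting against DMSO baseline.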
# [11] = biological target: Peroxisome proliferator-activated receptor gamma (Homo sapiens) (UniProt P37231); assay: ATG_PPARg_TRANS: Attagene TRANS-FACTORIAL HepG2 Assay for human Peroxisome Proliferator-activated Receptor-gamma (PPARg) (AID 2283007)
# Procedure, shortened: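 Twenty-four hours after chemical dosing of transiently transfected HepG2 cells, isolated RNA was converted to cDNA, reporter sequences amplified and 6-FAM-labelled, then HpaI-digested and analysed by capillary electrophoresis. Signal increase against DMSO was fitted.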
# [12] = biological target: Cellular tumor antigen p53 (Homo sapiens) (UniProt P04637); assay: TOX21_p53_BLA_p2_ratio: Tox21 HCT-116 p53 Agonism Beta-lactamase Assay, Ratio, Phase 2 (AID 2283592)
# Procedure, shortened: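 An inducible beta-lactamase reporter in HCT116 cells signals p53 pathway activation. After 16 h chemical exposure at 37C, cells load CCF4-AM substrate for 2 h at room temperature; activity is the cleaved/uncleaved emission ratio relative to DMSO.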
# [13] = ATG_M_06_TRANS: Attagene TRANS-FACTORIAL HepG2 Assay for M06 Transcription Factor (Internal Marker) (AID 2282983); conditions: HepG2 Attagene TRANS M06 internal marker reporter;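 on AC50: potency for rise in reporter mRNA above DMSO baseline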;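 on outcome: reporter transcript level by RT-PCR then capillary electrophoresis fluorescence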
# Procedure, shortened: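 Measured by capillary electrophoresis of fluorescently labelled RT-PCR products, this endpoint reflects reporter mRNA in HepG2 cells harbouring exogenous NR-GAL4 reporter constructs after 24 h exposure, with DMSO as baseline.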
# [14] = biological target: human Peroxisome Proliferator-activated Receptor delta (PPARd), PPARD (gene 5467) (UniProt Q03181); assay: ATG_PPARd_TRANS: Attagene TRANS-FACTORIAL HepG2 Assay for human Peroxisome Proliferator-activated Receptor delta (PPARd) (AID 2283002)
# Procedure, shortened: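 Cell-based TRANS reporter: HepG2, transient MRTU transfection, 24 h exposure. Readout = reporter mRNA (RT-PCR/CE, 6-FAM). Gain-of-signal fit vs DMSO control.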
# [15] = TOX21_p53_BLA_p5_viability: Viability Assessment in the Tox21 HCT-116 p53 Agonism Beta-lactamase Assay, Phase 5 (AID 2283600)
# Procedure, shortened: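 Counter-readout for cytotoxicity: ATP-dependent luminescence from CellTiter-Glo, read in the beta-lactamase wells after 30 min at RT, following a 16 h compound exposure at 37C.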
# [16] = biological target: Cellular tumor antigen p53 (Homo sapiens) (UniProt P04637); assay: TOX21_p53_BLA_p5_ratio: Tox21 HCT-116 p53 Agonism Beta-lactamase Assay, Ratio, Phase 5 (AID 2283599)
# Procedure, shortened: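 Beta-lactamase reporter ratio (blue 460 nm over green 530 nm, 405 nm excitation) after 2 h CCF4-AM loading, in HCT-116 cells exposed 16 h at 37 C to compounds pinned at 217-fold dilution. Increases relative to DMSO baseline scored.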
# [17] = biological target: Retinoic acid receptor RXR-alpha (Homo sapiens) (UniProt P19793); assay: OT_NURR1_NURR1RXRa_0480: Odyssey Thera (OT) 8-hour HEK293T Protein Complementation Assay for Nurr1/retinoid X receptor (RXR) (AID 2283385)
# Procedure, shortened: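 HEK293T cells expressing Nurr1 and RXRα fused to reporter fragments (protein-fragment complementation); fluorescence measured 8 h after dosing. Gain of signal fitted relative to DMSO.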
# [18] = biological target: Retinoic acid receptor RXR-alpha (Homo sapiens) (UniProt P19793); assay: OT_NURR1_NURR1RXRa_1440: Odyssey Thera (OT) 24-hour HEK293T Protein Complementation Assay for Nurr1/retinoid X receptor (RXR) (AID 2283386)
# Procedure, shortened: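 HEK293T protein-fragment complementation of Nurr1 and RXRα fused to reporter fragments; compounds 24 h. Fluorescence gain from reconstituted reporter fitted versus DMSO.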
# [19] = ACEA_AR_agonist_AUC_viability: ACEA Biosciences xCELLigence Real-Time Cell Analysis on Androgen Receptor Agonism for Viability (AID 2283775);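 further: viability read 80 hours after compound addition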
# Procedure, shortened: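 Real-time impedance tracking of 22Rv1 growth, readings every 5 min for 5 h then hourly; area-under-curve viability endpoint at 80 hours, relative to DMSO. Compounds at eight concentrations, 1:4 steps, top 100 uM, n = 2.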
structure (smiles),measurement,setting,value
CC=CC(=O)O,outcome,[1],inactive
same,outcome,[2],inactive
same,AC50,[3],inconclusive: 26.4 µM
same,outcome,[4],inactive
[Cl][Au]([Cl])[Cl],AC50,[1],inconclusive: 100 µM
same,AC50,[11],inconclusive: 100 µM
same,AC50,[2],inconclusive: 100 µM
same,AC50,[12],active: 74.1 µM
same,AC50,[7],inconclusive: 0.956 µM
same,AC50,[8],active: 70.7 µM
same,AC50,[9],active: 37.8 µM
FC(F)(F)C(F)(F)C(F)(F)Br,AC50,[13],inconclusive: 150 µM
same,AC50,[14],inconclusive: 150 µM
same,AC50,[3],inconclusive: 150 µM
CC(=O)c1c(C)cc(C(C)(C)C)cc1C,outcome,[14],inactive
same,outcome,[2],inactive
same,AC50,[7],inconclusive: 46.1 µM
same,outcome,[8],inactive
same,outcome,[15],inactive
CC(=O)OCc1ccc2c(c1)OCO2,outcome,[1],inactive
same,outcome,[13],inactive
same,AC50,[7],inconclusive: 46.2 µM
same,AC50,[8],inconclusive: 14.4 µM and inconclusive: 9.16 µM
same,AC50,[16],inconclusive: 46.2 µM
CCCCC(CC)COC(=O)c1ccccc1C(=O)O (stereo not given),outcome,[1],inactive
same,AC50,[3],inconclusive: 11.6 µM
same,AC50,[17],inconclusive: 6.17 µM
same,AC50,[10],inconclusive: 19.6 nM
CN(C)Cc1ccccc1O,outcome,[5],inactive
same,outcome,[14],inactive
same,outcome,[11],inactive
same,AC50,[3],inconclusive: 100 µM
same,outcome,[18],inactive
same,outcome,[6],inactive
same,AC50,[7],inconclusive: 74.9 µM
same,outcome,[16],inactive
same,AC50,[19],inconclusive: 16.6 µM
same,AC50,[4],inconclusive: 4.42 µM

# Taken from the results shown (2 entries):
structure (smiles),measurement,setting,value
CN(C)Cc1ccccc1O,outcome,[16],inactive
same,AC50,[19],inconclusive: 16.6 µM
